Drawing on article PMC10953580, this text covers binding for one substance.

The chains behind the UniProt entries cited, without tags or fusion partners. Residues count along the entry.
UniProt P37173, residues 23-567: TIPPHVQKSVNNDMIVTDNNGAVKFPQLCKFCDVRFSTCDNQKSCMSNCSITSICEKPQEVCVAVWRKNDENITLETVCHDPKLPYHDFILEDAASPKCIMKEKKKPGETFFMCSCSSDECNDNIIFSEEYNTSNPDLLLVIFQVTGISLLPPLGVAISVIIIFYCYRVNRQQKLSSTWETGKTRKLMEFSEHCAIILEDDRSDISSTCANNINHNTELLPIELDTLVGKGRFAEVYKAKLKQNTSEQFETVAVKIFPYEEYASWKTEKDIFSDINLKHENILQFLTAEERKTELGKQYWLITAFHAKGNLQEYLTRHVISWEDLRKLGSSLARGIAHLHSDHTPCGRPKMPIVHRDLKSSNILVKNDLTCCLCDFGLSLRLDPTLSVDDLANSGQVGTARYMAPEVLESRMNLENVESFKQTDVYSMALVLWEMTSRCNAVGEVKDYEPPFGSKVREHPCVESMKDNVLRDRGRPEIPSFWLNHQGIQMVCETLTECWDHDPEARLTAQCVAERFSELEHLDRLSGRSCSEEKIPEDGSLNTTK

For this assay, the target named is T1, GST-TSP50 (UniProt Q9UI38).
T1 sequence: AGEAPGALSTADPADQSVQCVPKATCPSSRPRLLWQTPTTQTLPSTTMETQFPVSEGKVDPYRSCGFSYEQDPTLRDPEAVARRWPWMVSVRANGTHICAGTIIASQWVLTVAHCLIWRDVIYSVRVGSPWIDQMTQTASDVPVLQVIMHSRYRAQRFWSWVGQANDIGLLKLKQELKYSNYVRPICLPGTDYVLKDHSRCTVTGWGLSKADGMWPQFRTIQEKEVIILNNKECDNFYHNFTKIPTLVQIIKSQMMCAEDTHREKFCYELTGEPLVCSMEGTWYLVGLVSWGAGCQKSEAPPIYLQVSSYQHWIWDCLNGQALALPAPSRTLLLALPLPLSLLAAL
Briefly: pull-down; GST-TSP50 as bait on gel suspension, incubated with Myc-TGFβRII overnight at 4 °C in GST pull-down binding buffer; blot with anti-TGFβRII and anti-GST; both purified.

No constants are given. Whether binding was seen depends on the method and setting. Some binding calls cover weakened binding; strength is not graded here. Where a sequence is shown, tags or fusion partners need not be part of it.

Turning to “Myc-TGFβRII used in the GST pull-down (from UniProt P37173 23-567) (receptor)”, the binding result was “binds”.
